Laboratory results: PubChem BioAssay AID602196 (INSERM, 2012)

Aim: 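Genes whose knock-down alters cisplatin killing of lung cancer cells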
Cell system: human A549 lung cancer cells
Knock-down reagent: siRNA pair against human genes
Duration: 48 h transfection before cisplatin; time from cisplatin to read-out not stated
Conditions: cisplatin at a dose killing half of control-siRNA cells; exact dose and duration not given
Read-out: 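Cisplatin cell death as a shift from the 50% death seen with control siRNA; siRNAs toxic or growth-blocking alone scored 0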
Scale: two-siRNA summed score (-2 to +2): higher = both siRNAs protect from cisplatin killing; -2 means both sensitise; mean protection from cisplatin (shift in death): higher = protection from cisplatin killing
Hit rule: 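Each siRNA scores 0 if harmful alone by LDH or WST-1, otherwise +1 if it reduces and -1 if it increases cisplatin killing; a gene is active when both siRNAs agree (sum +2 or -2)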
Meaning of the calls: active = both siRNAs shift cisplatin killing the same way; inactive = no consistent shift, or siRNA harmful alone
Here is a random part of about 23,000 reagents. 455 of them (2%) were called active. 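Active includes both protection and sensitisation; some change values fall well beyond the stated -50 to +50 range.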 A number with no mark means an inactive call. Reagents against one gene are numbered here. Not all columns of the deposit are shown. Reagent sequences are not shown. The record does not give: the amount of reagent.

no.	gene symbol	reagent no.	two-siRNA summed score (-2 to +2)	mean protection from cisplatin (shift in death) (%)
1	SUPT20H	1	0	5.5
2	SUPT20H	2	0	15
3	RPS6KA2	1	0	-3
4	SARDH	1	1	17.6
5	LOC345829	1	0	-2.4
6	LOC391165	1	0	0.4
7	SLCO1B7	1	1	4.8
8	AMY2A	1	1	13.1
9	ZNF555	1	0	9.7
10	OR1B1	1	1	5.9
11	TMEM128	1	0	11.5
12	LOC341784	1	0	2.2
13	SEC11A	1	0	10.4
14	RHOJ	1	0	-0.1
15	A4GNT	1	0	10.2
16	LOC389177	1	0	4.2
17	ABCB4	1	0	22.4
18	GOLGA6L2	1	0	3.4
19	CHRNA5	1	0	8.3
20	ARL8A	1	1	10.1
21	HSPA14	1	0	-6.6
22	RNASEH1	1	0	-1.6
23	MTERF3	1	0	-1.8
24	LOC284546	1	0	7.5
25	FLJ40194	1	0	4.3
26	PRKCH	1	0	11
27	OR5C1	1	-1	-8.2
28	ODAM	1	0	-0.5
29	FRMD8	1	0	-9.4
30	SLC41A2	1	0	12.8
31	UGT1A3	1	0	12.3
32	PTPN13	1	0	9.8
33	IGF2BP3	1	0	14.4
34	SQOR	1	0	7.1
35	PANK1	1	2 (active)	20.5
36	CAT	1	0	-16.1
37	LOC400368	1	0	-0.4
38	CBR4	1	2 (active)	19.5
39	ASB2	1	0	-16
40	LOC388166	1	1	7
41	FDX2	1	0	-0.1
42	RFC1	1	-1	-22.9
43	RNF157	1	0	2.2
44	GABRA6	1	1	2
45	DCUN1D4	1	0	11.8
46	LOC442496	1	0	8.6
47	TPM3	1	2 (active)	25.3
48	ZBTB12	1	1	10.5
49	RBFOX1	1	0	0.5
50	MYRF	1	0	-9.2
51	LOC346085	1	0	-2.6
52	LOC343381	1	0	-2.4
53	LOC126537	1	1	8.1
54	SLFN5	1	0	11.5
55	SLFN5	2	0	17
56	KAT2A	1	0	-8.7
57	TDRP	1	0	-2.7
58	LINC02610	1	1	12.3
59	SDHB	1	0	-0.2
60	LINC02762	1	0	9.7
61	MDS010	1	0	2.9
62	SELENOS	1	0	1.6
63	AMOTL2	1	1	16.9
64	LOC401389	1	1	9.8
65	ATP6V1H	1	0	-7.2
66	UPF1	1	0	7.3
67	FIGNL1	1	0	5.2
68	LOC401578	1	0	3.4
69	FAF1	1	0	-19.3
70	GLIDR	1	0	10.1
71	PLEKHA1	1	0	5.3
72	ADIPOR2	1	1	37.8
73	UBXN10	1	0	3.9

A run of entries from the list above:
no.	gene symbol	reagent no.	two-siRNA summed score (-2 to +2)	mean protection from cisplatin (shift in death) (%)
59	SDHB	1	0	-0.2
60	LINC02762	1	0	9.7
61	MDS010	1	0	2.9
62	SELENOS	1	0	1.6
